Results reported in US6359112B2 (Fraunhofer-Gesellschaft zur Forferung der angewandten …, priority 1997, dated 2002).
Not every detail of the peptide structures is certain; ends, links or a residue may be inferred. No end group written: not given here.

How the values were obtained:
[1] = Testing for fibril formation: electron and polarisation microscopy after congo red staining; format: physicochemical; settings: deposit isolated by centrifuging after complete aggregation
[2] = Aggregation of the peptide in 10 mM phosphate buffer pH 7.4 (light absorption at 400 nm); format: physicochemical

## NFGAIL [NFGAIL]
[1]
  Fibrillar and amyloid structure of the aggregate: confirmed
[2]; 3.75 mM peptide solution, 10 mM phosphate buffer pH 7.4
  Aggregation-Lag-Time: 9.5 h
[2]; 3.75 mM solution, fibril concentration 0.375 mM
  Aggregation after adding pre-prepared fibrils (nucleation centres): aggregation was accomplished immediately
[2]; 5 mM peptide solution, 10 mM phosphate buffer pH 7.4
  Aggregation behaviour: aggregated spontaneously
